Results taken from PMC8786475.
These are yes or no findings as the source states them, for the method shown. Binding seen in cells or lysates may run through a third protein. Some results given as binding are weak or reduced against the parent protein; the word gives no strength.

Chains of the proteins cited; added tags and fusions are not shown.
UniProt P04818: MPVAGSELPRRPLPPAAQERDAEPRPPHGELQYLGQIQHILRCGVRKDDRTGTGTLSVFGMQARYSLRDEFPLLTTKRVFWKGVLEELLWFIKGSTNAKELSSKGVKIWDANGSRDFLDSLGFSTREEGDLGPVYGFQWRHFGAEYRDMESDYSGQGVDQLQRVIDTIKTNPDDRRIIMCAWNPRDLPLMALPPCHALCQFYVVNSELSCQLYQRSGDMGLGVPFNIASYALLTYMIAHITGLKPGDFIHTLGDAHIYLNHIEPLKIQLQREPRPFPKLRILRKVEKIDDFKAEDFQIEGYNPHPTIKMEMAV
UniProt P17096: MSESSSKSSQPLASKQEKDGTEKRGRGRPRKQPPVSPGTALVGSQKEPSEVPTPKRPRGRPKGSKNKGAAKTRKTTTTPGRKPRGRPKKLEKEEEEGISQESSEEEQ

Target: TYMS (human (endogenous in EPCs of sepsis patients)) (UniProt P04818)
Test: co-IP; cells lysed in IP lysis buffer on ice; supernatant split into whole protein, IgG and IP; antibodies overnight at 4°C; protein A/G agarose beads 2 h; western blot; precipitating antibody not told

- binding: binds
Substance: High mobility group A1 (HMGA1) (from UniProt P17096 1-107)
